Measured values: publication PMC7962252

The chains behind the UniProt entries cited, without tags or fusion partners. Where a name states a change or a piece, a line headed by the entry shows the natural chain unless it says otherwise.
UniProt Q9BL47: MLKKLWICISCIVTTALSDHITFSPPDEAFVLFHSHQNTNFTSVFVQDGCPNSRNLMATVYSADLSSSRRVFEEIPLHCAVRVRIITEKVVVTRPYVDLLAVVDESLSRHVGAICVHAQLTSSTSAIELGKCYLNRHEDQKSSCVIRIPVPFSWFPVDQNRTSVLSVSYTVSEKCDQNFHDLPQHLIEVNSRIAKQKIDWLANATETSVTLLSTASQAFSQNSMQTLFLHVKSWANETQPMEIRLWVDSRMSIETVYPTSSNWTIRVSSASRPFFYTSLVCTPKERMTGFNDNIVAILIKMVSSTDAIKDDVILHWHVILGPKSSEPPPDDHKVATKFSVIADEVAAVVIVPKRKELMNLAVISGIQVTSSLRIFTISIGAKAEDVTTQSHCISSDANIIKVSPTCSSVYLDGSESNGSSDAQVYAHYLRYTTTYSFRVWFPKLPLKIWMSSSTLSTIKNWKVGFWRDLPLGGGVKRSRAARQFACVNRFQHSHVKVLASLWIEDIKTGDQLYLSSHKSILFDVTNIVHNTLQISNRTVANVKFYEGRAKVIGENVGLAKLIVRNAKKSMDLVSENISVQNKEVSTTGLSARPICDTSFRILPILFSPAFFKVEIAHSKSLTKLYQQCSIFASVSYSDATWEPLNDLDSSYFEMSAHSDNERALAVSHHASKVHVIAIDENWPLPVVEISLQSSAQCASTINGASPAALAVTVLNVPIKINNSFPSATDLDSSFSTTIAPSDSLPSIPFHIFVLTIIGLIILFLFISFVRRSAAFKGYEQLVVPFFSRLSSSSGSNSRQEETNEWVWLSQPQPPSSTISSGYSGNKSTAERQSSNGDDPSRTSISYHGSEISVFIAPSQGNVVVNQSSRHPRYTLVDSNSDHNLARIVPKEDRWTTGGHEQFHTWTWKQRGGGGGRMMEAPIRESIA

B1: GEX-3 full length (yeast two-hybrid) (protein, UniProt P55163 1-1141)
chain: MAYKDARQVKIAEKLVILNDRAAGMMTRIYNIKKSSGDSKVKPQFLSDKKMEGAIKHIVRKFPVVDCRSNSSTFEYVQEKSTEITKSLSLYYYTFADILDLKDHIMQVLTTMESCQCQLDVTLNYDLTTSYLNLVVHLVTMMILLSRIEDRKAVLGLFNAAYDLQHGQSEASFPRLGQMILDYENPLKKLHEDLGPLNRLIYSALSSVTHTYQRRNKTADSWRTSNVFSLTAAPAQILYAAQTETIACEYLSLDVIDRWIVFCGTVCHSTLLNDDNIRHMWQLALQMNLCLRVFRDETFIVHQEIQAFLESSKEKSKRLQDVKDAFNHASVTAVAVHADRRRFLRSSLRELSLLLRDQPGLLGPKILYVWMALGAGRDEVIWLLRHQVEVPAISKKGSRMVEELVDRQLPELLFYMLELRDLVTKYYAVIQRYYLQYVSSYDSIVVSEEINQANGLTQEEAVLLTDFANEIGNINSDTDLRALRLDWFRFQAWTSAARSHFQLSRHKKLAIYMNTSVFHLKMIDLQDEMLRETSDLSLYCFYPKLAEKHWLNCLQLPAQARYVLSFARLAAHFTSALHDMCPEEKAFITEKALAQCNSVIEETCKQLSYILEKVAEHEFGLAYQMTPSAVAVRVVAQVVQQKGSGKAAAAAAAAARDYFIAGEESYRVDRQALTMPDKLQTTLLEISAALGAHRQIYVADHTFAPRTYLAQSLETKFVELLHGMFWEGQPHASNPKRPSEMLLALQAYMTVLQNLDTAISVDISNTMQTTLLQQTQLVDSKNKDTIAALYTKWYLEVLLRRASSGHMVWSEHLRTMLSSGQEQLSFMPDHYSDPQELRALVQIIGPYGVKLMTERLIWHVASQIMEMSKIVATYKDALQIARSNFDNAEKMKDVLNLLSVEPKDKKTPNATCAADAILQRTIIIGQICLFRDALHDALRHIVESKLPFLQASFDMLYHNLDDVDKVKIGEMSAAMGVTGPVDMSLVNAVRAQNPNIHPQEHYVNSCLLMVAVAICIPRIGMSDLSSYKPSIQASLNNSHCVPMAINTIGSALFHLHEQNDIQSRMKEFLALASSGILRTIHERDNSRQISDDVLRSHTTLYIILEQMVRKNRWLSMDVLETCFPYNLVRTAYQQCYEADAQ

target: C. elegans TMEM-132 C-terminus (yeast two-hybrid bait) (C. elegans) (UniProt Q9BL47); test: two-hybrid; Matchmaker Gold yeast two-hybrid; TMEM132D or TMEM-132 C-terminus as bait (pGBKT7), NAP1 or GEX-3 as prey (pGADT7); read by yeast colony growth; verified by co-transformation of extracted and re-cloned plasmids

| Molecule | binding |
| --- | --- |
| GEX-3 C-terminal 60 a.a. fragment (yeast two-hybrid) (from UniProt P55163) (domain or fragment) | binds |
| GEX-3 C-terminal 600 a.a. fragment (yeast two-hybrid) (from UniProt P55163) (domain or fragment) | binds |
| B1 | binds |

Results are given in words; binding and its absence hold for the method and conditions named. Binding calls can cover weak binding; strength is not graded here.
